Out of some 360,000 compounds screened, about 9,100 (2.5%) were called active. This list was built around the results that the source calls inconclusive (neither active nor inactive); the mix of calls is not that of the screen. No stated cut-off is given here; in the data, active means max response below about -50%; inconclusive means no clear call, values can overlap the other calls; inactive means above that.
molecular target: D(3) dopamine receptor (Homo sapiens) (UniProt P35462); experiment: qHTS of D3 Dopamine Receptor Antagonist: qHTS; settings: D3R cells, DiscoveRx beta-arrestin luminescence, antagonist mode; stronger effect = lower value
Outline: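 Cells expressing the human receptor were seeded at 1500 cells/well, incubated overnight at 37 degrees C in 5% CO2, then exposed to library compounds with dopamine controls for 90 minutes at 37 degrees C before luminescent detection.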
On the % scale 0 is the no-effect control and ±100 the full control effect.

Chains of the proteins cited; added tags and fusions are not shown.
UniProt P35462, whole entry, looked up: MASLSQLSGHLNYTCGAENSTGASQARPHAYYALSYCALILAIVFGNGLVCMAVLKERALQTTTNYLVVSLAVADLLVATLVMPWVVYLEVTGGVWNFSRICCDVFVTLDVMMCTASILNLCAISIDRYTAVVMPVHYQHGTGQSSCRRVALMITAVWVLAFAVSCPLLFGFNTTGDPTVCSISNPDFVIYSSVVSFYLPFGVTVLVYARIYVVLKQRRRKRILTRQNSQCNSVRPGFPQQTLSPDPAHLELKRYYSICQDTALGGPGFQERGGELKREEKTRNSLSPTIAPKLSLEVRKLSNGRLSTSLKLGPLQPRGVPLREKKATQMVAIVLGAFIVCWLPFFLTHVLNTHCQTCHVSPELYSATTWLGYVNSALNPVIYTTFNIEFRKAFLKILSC

Row | Compound | max response, negative = inhibition
1 | Cc1coc2c(O)cc3c(c12)OC1(N2CCCCC2)C(=O)NCCCC31 (configuration not stated) | inconclusive: -45.2%
2 | O=C1c2ccccc2-c2onc3ccc(NCCCn4ccnc4)c1c23 | inconclusive: -30.6%
3 | CCOc1ccc(NC(=S)NC(=O)c2c(Br)cnn2C)c([N+](=O)[O-])c1 | inconclusive: -38.4%
4 | Cc1cc(C)cc(NC(=O)[C@H](NC(=O)[C@@H]2Cc3ccccc3CN2)c2ccccc2)c1 | active: -108%
5 | O=C1Nc2ccccc2/C1=C/c1ccccc1F | inconclusive: -32.2%
6 | CCCCn1nnnc1C(c1ccccc1)N1CCN(c2ccccc2OC)CC1 (configuration not stated) | inactive: -12.3%
7 | CC(=O)NC1C(OCc2ccccc2)OC(CO)C(OC(C)=O)C1OC(C)=O (configuration not stated) | inactive: 1.47%
8 | CC(C)(C)OC(=O)N[C@@H](COCc1ccccc1)C(=O)N[C@@H](CO)[C@H](O)[C@@H]1C[C@@H]1C(=O)NC1CC1 | inconclusive: -34.7%
9 | COc1ccc(NC(=O)CN2C(=O)C(C)Oc3ccccc32)c(OC)c1 (configuration not stated) | inconclusive: -40.8%
10 | Cc1cc(N=Nc2ccccc2C(=O)O)c(C)c(C)c1O | inconclusive: -39.2%
11 | CCc1ccc(CNC(=O)C2CCC(=O)N(CCc3ccc(Cl)cc3)C2)nc1 (configuration not stated) | inactive: 7.15%
12 | CC1CCC(NC(=O)CN2CCC(n3nnc4cc(F)ccc43)CC2)CC1 (configuration not stated) | active: -67.1%
13 | CC(=O)Nc1ccc(C2=CC(=O)C[C@H](c3ccc(Cl)cc3)C2)cc1 | inactive: 22.9%
14 | CC1CCN(CCC(=O)Nc2ccc(Cl)cc2)CC1 | active: -64.4%
15 | COc1ccc(C(=O)CC(=O)c2ccc(F)cc2)cc1 | inactive: -4.09%
16 | O=C(NCCc1cccc(Cl)c1)c1ccc(Cl)c([N+](=O)[O-])c1 | inconclusive: -34.1%
17 | Cc1ccc2nsnc2c1NC(=O)COc1ccccc1 | inconclusive: -32.9%
18 | COc1ccccc1N1CCN(CCCCOc2cccc3ccccc23)CC1 | active: -68.6%
19 | Clc1cc(/C=N\NC2=NCCN2)cc(Cl)n1 | inconclusive: -41.9%
20 | FC(F)(F)c1cccc(NC(=S)N2CCN(c3ccccn3)CC2)c1 | active: -106%
21 | O=C(NCc1ccccc1)c1ccc(S(=O)(=O)N2CCCc3ccccc32)cc1 | inconclusive: -39.1%
22 | OC(COc1ccccc1)CN1CCN(c2cccc(Cl)c2)CC1 (configuration not stated) | active: -51.8%

Row | Compound | max response, negative = inhibition
23 | CC1CCCCN1CCCNC(=O)c1nn(C)c2c1CSc1ccccc1-2 (configuration not stated) | inconclusive: -43.2%
24 | COc1ccc(C2(C)C(C#N)C(=O)NC(=O)C2C#N)cc1 (configuration not stated) | inactive: 3.88%
25 | Cn1cc([N+](=O)[O-])c(C(=O)Nc2cc(Oc3cccnc3)cc([N+](=O)[O-])c2)n1 | inconclusive: -36.6%
26 | NNc1nc(Nc2ccc([N+](=O)[O-])cc2)nc(N2CCCCCC2)n1 | active: -51.9%
27 | CC(SC1=Nc2ccccc2C2CC=NN12)C(=O)NC1(C#N)CCCCC1 (configuration not stated) | inconclusive: -30.2%
28 | Cc1ccc(OCCN(C)C(=O)C2CCC(=O)N(CCCN3CCCC3=O)C2)cc1 (configuration not stated) | inactive: 4.67%
29 | COc1ccc(OC)c(Nc2ccc(C(=O)O)cc2[N+](=O)[O-])c1 | inconclusive: -42.7%
30 | CC(C)Oc1cccc(C(=O)Nc2nnc([C@H]3C[C@H](O)[C@@H](CO)O3)s2)c1 | inconclusive: -32.3%
31 | O=C(NNC(=S)NC(=O)c1cccnc1)c1ccc(F)cc1 | inconclusive: -36.4%
32 | Cc1cccc(C)c1Cn1c(C)c(C(=O)NCc2ccc(C#N)cc2)sc1=O | inconclusive: -36.3%
33 | CSc1cccc(CN2CCC(CO)(Cc3cccc(C(F)(F)F)c3)CC2)c1 | inconclusive: -40.5%
34 | Cn1c(CCCNC(=O)c2ccccc2)nc2ccccc21 | active: -53.9%
35 | CCN(C(=O)COC(=O)c1cc2c(s1)CCCC2)c1c(N)n(Cc2ccccc2)c(=O)[nH]c1=O | inactive: 8.81%
36 | O=C(Nc1ccc(S(=O)(=O)NCc2ccccc2)cc1)Nc1ccc2c(c1)OCO2 | inconclusive: -30.6%
37 | ClCC1NCC(c2ccccc2Cl)c2c1[nH]c1ccccc21 (configuration not stated) | inactive: -9.85%
38 | O=C(CCS(=O)(=O)c1ccc(Cl)cc1)Nc1cccc(S(=O)(=O)N2CCCCCC2)c1 | inactive: -19.9%
39 | CCOc1cccc(NC(=O)C2CC(=O)N(C)C2)c1 (configuration not stated) | active: -76.9%
40 | COc1ccc(OC)c(NC(=O)C(=O)NNC(=O)c2cccs2)c1 | inconclusive: -38.6%
41 | CCOC(=O)c1ccc(-c2c(C)cc3oc(=O)cc(-c4ccccc4)c3c2C)cc1 | inactive: -0.154%
42 | COc1ccc2sc(N(CCCN(C)C)C(=O)c3ccc(C(=O)c4ccccc4)cc3)nc2c1 | inconclusive: -45.4%
43 | c1ccc(-c2cc(-c3ccc(N4CCOCC4)cc3)nc3ccccc23)cc1 | inconclusive: -34.5%
44 | CCC(CC)C(=O)N1CCN(Cc2ccc3c(c2)OCO3)CC1 | inconclusive: -42.9%

Of the compounds above, 6 have fluorine:
Row | Compound | max response, negative = inhibition
5 | O=C1Nc2ccccc2/C1=C/c1ccccc1F | inconclusive: -32.2%
12 | CC1CCC(NC(=O)CN2CCC(n3nnc4cc(F)ccc43)CC2)CC1 (configuration not stated) | active: -67.1%
15 | COc1ccc(C(=O)CC(=O)c2ccc(F)cc2)cc1 | inactive: -4.09%
20 | FC(F)(F)c1cccc(NC(=S)N2CCN(c3ccccn3)CC2)c1 | active: -106%
31 | O=C(NNC(=S)NC(=O)c1cccnc1)c1ccc(F)cc1 | inconclusive: -36.4%
33 | CSc1cccc(CN2CCC(CO)(Cc3cccc(C(F)(F)F)c3)CC2)c1 | inconclusive: -40.5%

Further records.

Row | Compound | max response, negative = inhibition
45 | Cc1nn(-c2cccc(Cl)c2)c2c1C(c1ccncc1)C(C#N)=C(N)O2 (configuration not stated) | inconclusive: -42.9%
46 | COc1ccc(-c2cc(=O)oc3c(C)c(OC(C)C(=O)NCc4ccccn4)ccc23)cc1 (configuration not stated) | inactive: -16%
47 | O=C(COC(=O)c1ccc([N+](=O)[O-])o1)NCc1ccccc1 | inconclusive: -31.2%
48 | Cc1ccc(Nc2n[nH]c(=S)s2)c(C)c1 | inconclusive: -35.6%
49 | CCCCOC1NC(=O)NC(=O)C1(F)C(=O)OCC (configuration not stated) | inactive: 10.3%
50 | O=C(CCN1C(=O)c2ccccc2S1(=O)=O)Nc1cc(Cl)ccc1Cl | inactive: 1.95%
51 | CCOC(=O)c1nnc(-c2ccccc2)nc1Sc1c(Cl)cccc1Cl | inconclusive: -46.5%
52 | CC1CCN(CC(C)OC(=O)c2ccc3c(c2)OCCO3)CC1 (configuration not stated) | active: -75.3%
53 | CC(C)CCN1C(=O)c2ccc(C(=O)Nc3ccc(O)cc3C(=O)O)cc2C1=O | inactive: 21.2%
54 | COc1ccc2[nH]c3c(c2c1)CCN1C(=O)C(CC(=O)NCCN2CCOCC2)C[C@H](C(=O)N(C(C)C)C(C)C)[C@@]31C (some centres not stated) | inconclusive: -47.1%
55 | Cc1ccccc1C(=O)c1cccn1CC(=O)NCc1ccco1 | inconclusive: -33.9%
56 | OCC[C@@H]1C[C@H](O)[C@@H](O)[C@@]2(OCc3cc(Cl)ccc32)O1 | inactive: -22.1%
57 | CCN(CC)S(=O)(=O)c1cccc(N=Nc2sc(N)nc2C)c1 | inactive: -24.9%
58 | O=C(CN1CCCC1)NC1C2CC3CC(C2)CC1C3 (configuration not stated) | inconclusive: -41.6%
59 | Cc1ccc(-n2c(Cl)c(Cl)nc(Cl)c2=O)cc1 | active: -106%
60 | Cc1cccc(-c2nc(CN3CCCC(C(=O)NC4CCC(C)CC4)C3)c(C)o2)c1 (configuration not stated) | inconclusive: -30.3%
61 | CCCCOc1ccc(/C(O)=C2/C(=O)C(=O)N(Cc3cccnc3)C2c2ccncc2)c(C)c1 (configuration not stated) | inconclusive: -35.1%
62 | Cc1cc(Cl)ccc1OCCCC(=O)OCC(=O)Nc1cccc(S(N)(=O)=O)c1 | inconclusive: -35.6%
63 | CC(=O)CSc1nsc(SCC(C)=O)c1C#N | active: -69.1%
64 | CCc1ccc(CNC(=O)CCc2nnc(Cc3cccc(C(F)(F)F)c3)o2)nc1 | inactive: -10.2%
65 | Cc1ccc(C)n1-n1c(C)nc2scc(-c3cccs3)c2c1=O | inconclusive: -30.3%
66 | CCCCCCCc1nn2c(=O)cc(O)nc2s1 | inactive: 18.1%

Row | Compound | max response, negative = inhibition
67 | Cc1ccc(CN2CCC[C@]3(N[C@H](c4ccc(C)cc4)[C@@H]4C(=O)N(C)C(=O)[C@@H]43)C2=O)cc1 | inconclusive: -30.5%
68 | CC(C)OC(=O)CCC(=O)Nc1ccc(F)cc1 | inactive: -9.54%
69 | COC(=O)c1ccc(C2/C(=C(/O)c3ccc(OC(C)C)cc3)C(=O)C(=O)N2c2cc(C)on2)cc1 (configuration not stated) | inconclusive: -42.4%
70 | c1coc(CN(Cc2ccco2)c2ncnc3c2oc2ccccc23)c1 | inconclusive: -42.5%
71 | c1ccc(-c2n[nH]c(-c3ccccc3)c2-c2nc3ccccc3[nH]2)cc1 | active: -56.4%
72 | COc1ccc(C(CNC(=O)C(CC(C)C)NS(=O)(=O)c2ccc(C)cc2)N2CCOCC2)cc1 (configuration not stated) | inconclusive: -47.3%
73 | CN(C)CCCOC(=O)c1ccccc1Cl | inconclusive: -39.5%
74 | COc1ccc(-c2nc(N=Nc3ccc(O)cc3)n[nH]2)cc1 | inconclusive: -40.5%
75 | COc1ccc(S(=O)(=O)N2CCN(c3ccc4nnc(-c5ccccc5)n4n3)CC2)cc1 | inactive: 7.52%
76 | CS(=O)(=O)N1CCCC(C(=O)NCCCN2CCC(Cc3ccccc3)CC2)C1 (configuration not stated) | inconclusive: -44.4%
77 | COc1cccc2oc(-c3ccco3)cc(=O)c12 | active: -54.4%
78 | COC(=O)C1=C(N)Oc2cc(C)n(CCCn3ccnc3)c(=O)c2C1c1cccc(Cl)c1 (configuration not stated) | inconclusive: -46.3%
79 | O=C(Nc1ccccc1-c1nnc(SCc2ccccc2Cl)o1)c1ccccc1 | inactive: 23.7%
80 | CN(/N=C/c1cc(Br)cc(Br)c1O)c1cccc(C(F)(F)F)n1 | inconclusive: -42.1%
81 | Cc1ccc(CSCCNC(=O)CCSc2ccccc2)cc1 | inactive: 4.71%
82 | Cc1cc(C)c2cc(C(=O)N3CCN(c4ncccc4C(F)(F)F)CC3)[nH]c2c1 | inactive: 10.3%
83 | O=C(OCn1ncc(Cl)c(Cl)c1=O)c1ccccc1Cl | active: -69.6%
84 | COc1cccc(OCC(O)CN2CCC(C)CC2)c1 (configuration not stated) | inactive: 11%
85 | COc1ccc(Cc2c(-c3ccc(F)cc3)nc3c(C)cc(Br)cn23)c(C)c1 | inconclusive: -30.7%
86 | CN(C)c1cccc(C(=O)Nc2ccc3nc4n(c(=O)c3c2)CCCCC4)c1 | active: -60.6%
87 | CCOc1ccc2nc(SCC(=O)NCc3ccc(S(N)(=O)=O)cc3)sc2c1 | inactive: -0.88%
